Where a name gives a salt, the structure may show the parent alone. The list shows a part of the results. Single values are uncertain here, since repeats match poorly.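 Human kidney-derived cells stably carry a construct in which eight TEAD-binding elements drive luciferase, measured by luminescence in a drug-repurposing library screen. A hit is any compound whose signal exceeds the plate mean by more than five robust Z scores.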
Test system: HEK293A TEAD-LUC reporter
Assay: TEAD-luciferase reporter activity (YAP activation), robust Z score vs plate; higher = stronger YAP/TEAD activation
Settings: 24 h

| SMILES | TEAD-luciferase reporter activity (compound concentration: 200 nM) | TEAD-luciferase reporter activity (compound concentration: 10 uM) | TEAD-luciferase reporter activity (compound concentration: 2 uM) |
| --- | --- | --- | --- |
| COc1cccc(-c2ccc(C(=O)N3CCC(C(=O)NCc4ccc5c(c4)OCO5)CC3)cc2)c1 | inactive: 2.29 | active: 6.55 | – |
| Cc1ccc(/C=N/NC(N)=S)s1 | inactive: -0.691 | inactive: 1.53 | inactive: 2.74 |
| CC1(C)Oc2ccc(NC(=O)/C=C3\CCCOc4cc(C(F)(F)F)ccc43)cc2NC1=O | inactive: -1.26 | inactive: 2.06 | inactive: -1.3 |
| CC(=O)[C@@]1(O)CC[C@H]2[C@@H]3C[C@H](C)C4=CC(=O)C=C[C@]4(C)[C@@]3(F)[C@@H](O)C[C@@]21C [fluorometholone, Allergan] | inactive: -1.41 | inactive: 3.37 | inactive: 0.963 |
| CN(C)CCCn1c(=O)c2ccccc2c2ccccc21 | inactive: 3.36 | active: 5.64 | active: 7.73 |
| O=C(O)c1cc(-n2c(-c3ccccc3)cc3c2CCc2ccccc2-3)ccc1O | inactive: -0.03 | inactive: 1.02 | inactive: 3.78 |
| Nc1nnc(NCCCOc2cccc(CN3CCCCC3)c2)s1 | inactive: -0.83 | – | inactive: -0.943 |
| CCCCOc1cccc(CCNCC(=O)N(C)C)c1 [Evenamide hydrochloride] | inactive: -1.41 | inactive: 0.345 | inactive: 0.485 |
| CC1(CCN2CCCCC2)C(=O)CCc2ccccc21 (stereo not drawn) [Nepinalone] | inactive: -1.43 | inactive: -0.0362 | inactive: -1.19 |
| COc1cccc(C2c3[nH]c4ccccc4c3C[C@H]3C(=O)N(CCC4=CCCCC4)CC(=O)N23)c1OC (stereo partly drawn) | inactive: -0.923 | inactive: -2.37 | inactive: -1.78 |
| CCCCCCN(CCO)c1cc(N(CC)CC)nc2ncnn12 | inactive: 0.0146 | inactive: 1.78 | inactive: -0.581 |
| C#C[C@]1(OC(C)=O)CC[C@H]2[C@@H]3CCC4=CC(N=O)CC[C@@H]4[C@H]3CC[C@@]21CC (stereo partly drawn) [Norgestimate] | inactive: -0.707 | active: 8.86 | inactive: 4.59 |
| CN1[C@@H]2CC[C@H]1C[C@@H](NC(=O)c1cc(Cl)cc3c1OC(C)(C)C3)C2 | inactive: -2.28 | inactive: 1.05 | inactive: -0.38 |
| COC(=O)C1=C(C)NC(C)=C(C(=O)OCCN2CCN(C(c3ccccc3)c3ccccc3)CC2)C1c1cccc([N+](=O)[O-])c1 (stereo not drawn) [Manidipine (Manyper)] | inactive: 0.787 | inactive: -0.754 | – |
| COC(=O)C1=C(C)NC(C)=C(C(=O)OCCN2CCN(C(c3ccccc3)c3ccccc3)CC2)C1c1cccc([N+](=O)[O-])c1 (stereo not drawn) [manidipine] | – | – | inactive: -2.34 |
| O=S1(=O)OC(c2ccc(O)cc2)(c2ccc(O)cc2)c2ccccc21 | inactive: -2.8 | active: 6.64 | inactive: -2.52 |
| NCCCNc1ccc2c3c(nn2CCNCCO)-c2c(O)ccc(O)c2C(=O)c13 [Piroxantrone] | inactive: -0.137 | inactive: 3 | inactive: 1.98 |
| COc1c(-c2ccc3cc(NS(C)(=O)=O)ccc3c2)cc(-n2ccc(=O)[nH]c2=O)cc1C(C)(C)C [Dasabuvir] | inactive: -1.18 | inactive: 0.00209 | inactive: 1.18 |

Random excerpt: two records from the list.

| SMILES | TEAD-luciferase reporter activity (compound concentration: 200 nM) | TEAD-luciferase reporter activity (compound concentration: 10 uM) | TEAD-luciferase reporter activity (compound concentration: 2 uM) |
| --- | --- | --- | --- |
| CC1(C)Oc2ccc(NC(=O)/C=C3\CCCOc4cc(C(F)(F)F)ccc43)cc2NC1=O | inactive: -1.26 | inactive: 2.06 | inactive: -1.3 |
| COc1c(-c2ccc3cc(NS(C)(=O)=O)ccc3c2)cc(-n2ccc(=O)[nH]c2=O)cc1C(C)(C)C [Dasabuvir] | inactive: -1.18 | inactive: 0.00209 | inactive: 1.18 |

Later entries.

| SMILES | TEAD-luciferase reporter activity (compound concentration: 200 nM) | TEAD-luciferase reporter activity (compound concentration: 10 uM) | TEAD-luciferase reporter activity (compound concentration: 2 uM) |
| --- | --- | --- | --- |
| COc1c(C)cnc(Cn2cc(C#CCCOP(=O)(O)O)c3c(Cl)nc(N)nc32)c1C | inactive: -0.0199 | inactive: -1.75 | – |
| CC(=O)N1Cc2ccccc2CC2(CCCN2C)C1 (stereo not drawn) | active: 5.49 | inactive: 2.51 | – |
| Cc1[nH]c2ccccc2c1C[C@H](NC(=O)[C@@H](Cc1c(C)[nH]c2ccccc12)NC(=O)[C@@H](Cc1c(C)[nH]c2ccccc12)NC(=O)CCCN)C(=O)N[C@@H](CCCCN)C(N)=O | inactive: 0.608 | inactive: -0.561 | inactive: -1.01 |
| O=CC(O)C(O)C(O)C(O)COP(=O)(O)O (stereo not drawn) [mannose-6-phosphate, BTG] | inactive: -0.975 | inactive: -0.0018 | – |
| O=C1c2ccccc2C(=O)C1(CN1CCOCC1)c1ccccc1 | inactive: -1.39 | inactive: -0.0628 | inactive: -0.881 |
| COc1nsc(NC(=O)N2C[C@H]3C[C@H](N(C)c4ncnc5[nH]ccc45)C[C@H]3C2)n1 | inactive: -1.72 | inactive: -0.0372 | inactive: -0.772 |
| Cc1cnc(CNC(=O)c2c(=O)c3ccc(N4CCCN(C)CC4)nc3n3c2sc2ccccc23)cn1 | – | inactive: 1.07 | inactive: -0.633 |
| Cn1cc(-c2cccc3cc(C(=O)NC(=N)N)ccc23)cn1 | inactive: 3.54 | inactive: 1.62 | inactive: 1.05 |
| Cc1ncc([N+](=O)[O-])n1CCCN1CCN(C)CC1 | inactive: 1.25 | inactive: -1.61 | inactive: -1.14 |
| CCCCCCCCCCCCCCCCCCCCCCCCCC(=O)O | inactive: -1.16 | inactive: -0.0531 | inactive: 0.697 |
| CSCC1CN(/N=C/c2ccc([N+](=O)[O-])o2)C(=O)O1 (stereo not drawn) [Nifuratel] | inactive: 1.84 | inactive: 1.84 | inactive: -1.49 |
| Cc1noc(-c2ccc(CSCCC(=O)O)cc2)c1NC(=O)OC(C)c1ccccc1Cl (stereo not drawn) | inactive: -1.07 | inactive: -2.07 | inactive: -1.37 |
| C[C@@H](O)[C@H]1C(=O)N2C(C(=O)O)=C([C@@H]3CCCO3)S[C@H]12 [Faropenem sodium] | inactive: -0.606 | inactive: 0.873 | inactive: -0.615 |
| CO/N=C(\C(=O)N[C@@H]1C(=O)N2C(C(=O)OCOC(=O)C(C)(C)C)=C(/C=C\c3scnc3C)CS[C@H]12)c1csc(N)n1 [Cefditoren Pivoxil] | inactive: -1.05 | inactive: -2.2 | – |
| CO/N=C(\C(=O)N[C@@H]1C(=O)N2C(C(=O)OCOC(=O)C(C)(C)C)=C(/C=C\c3scnc3C)CS[C@H]12)c1csc(N)n1 [cefditoren pivoxil] | – | – | inactive: -2.5 |
| [I][Zn][I] | inactive: 0.852 | inactive: 3.22 | inactive: -1.44 |
| Nc1cc2[nH]cnc2c(=O)[nH]1 [3-Deazaguanine] | inactive: -0.41 | inactive: -0.774 | inactive: -1.38 |

— the supplement of paper PMC10735217
